Data as given in PubChem BioAssay AID652272 (Drosophila RNAi Screening Center, 2013).
The screen tested about 21,000 reagents; this is an unselected part of those with a known target gene and a result. Of all reagents, 503 (2.4%) were called active. 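Raw plate light values, not normalised; calls rest on replicate z-scores that were not deposited; hits include reporter decreases as well as increases.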 Names joined by + are all predicted targets of the reagent. No sequences are given here. The record does not give: the amount of reagent, the time to read-out.

- Purpose: 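Finding fly genes that regulate Hedgehog signal transduction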 (primary screen)
- Cells: Drosophila clone 8 (Cl8) cells
- Knock-down reagent: long dsRNA against Drosophila genes
- Detection: 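Firefly light from a Hedgehog-responsive ptc promoter reporter and Renilla reference light, both read on a plate reader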
- Scale: firefly Hh reporter signal: higher = more ptc reporter light; Renilla reference signal: higher = more Renilla control light
- Call rule: 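Called a hit if the two-replicate mean z-score lies below -2 or above +3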
- Meaning of the calls: active = hit: reporter lowered or raised; inactive = not a hit

target gene	dsRNA	firefly Hh reporter signal, replicate 1	firefly Hh reporter signal, replicate 2	firefly Hh reporter signal, replicate 3	Renilla reference signal, replicate 1	Renilla reference signal, replicate 2	activity call
Pstk + Tim9b	DRSC19504	1.20e5	1.05e5		2692	2664	inactive
Pstk + Tim9b	DRSC20292	99212	2.25e5		2874	9312	inactive
dati	DRSC17128	1.07e5	57600		2562	1717	inactive
dati	DRSC17140	77857	2.05e5		2902	6764	inactive
dati	DRSC17153	1.12e5	2.73e5		4162	10024	inactive
CG31871	DRSC02567	1.03e5	50115		2357	3911	inactive
CG31871	DRSC02571	1.05e5	48455		1868	3717	inactive
mRpL1	DRSC16251	62068	1.10e5		2356	2515	inactive
trp	DRSC17088	88240	1.02e5		3413	3051	inactive
cdi	DRSC16922	1.46e5	62957		5259	2636	inactive
thetaTry	DRSC07705	84773	42625		2216	3027	inactive
Cph	DRSC17507	5.11e5	1.96e5		29954	4512	inactive
Cph	DRSC18434	51792	2.39e5		2019	10023	inactive
IleRS-m	DRSC10506	1.60e5			6520	4628	inactive
ci	DRSC17172	16708	30038		2421	7725	active
CG13895	DRSC08365	90640	63562		3494	4433	inactive
wal	DRSC07717	44992	42701		2071	1735	inactive
CG12362	DRSC09884	64566	51186	93916	4769	6004	inactive
CG13324	DRSC06361	94587	63777		2298	4011	inactive
Prosbeta4R2	DRSC00503	84832	58517		3724	2573	inactive
CG6304	DRSC02948	56033	38844		2666	1700	inactive
mRpS18A	DRSC14369	44554	77300		1492	1830	inactive
CG31528	DRSC12003	2.81e5			5973		inactive
CG13829	DRSC14679	4.07e5	87937		20666	2618	inactive
E(spl)mbeta-HLH	DRSC16697	1.33e5	1.09e5		2948	2871	inactive
Hs6st	DRSC14348	5.98e5	1.25e5		31319	3019	inactive
Hs6st	DRSC15182	9.37e5	2.16e5		50915	5552	inactive
Hs6st	DRSC15581	9.60e5	7.03e5	1.98e5	54065	7688	inactive
RpL32	DRSC16835	30695	2.59e5	23971	2320	1539	active
CG14636	DRSC12223	84234	92327		3003	2809	inactive
Pten	DRSC03402	85181	71025		2125	5453	inactive
Ucp4C	DRSC03132	1.26e5	74504		3275	7361	inactive
GNBP1	DRSC11169	2.26e5			7154	6245	inactive
CG33308	DRSC01419	83108	1.95e5		2397	8736	inactive
for	DRSC00195	3.73e5	2.03e5		17984	7609	inactive
for	DRSC00818	92832	84145		4017	3853	inactive
Rexo5	DRSC10981	49200	56540		5284	4066	inactive
CG10336	DRSC02037	40688	26121		1796	1072	inactive
eIF4G2	DRSC14207	1.42e5	74925		5200	2867	inactive
